Results are given in words; binding and its absence hold for the method and conditions named. Some entries that bind do so weakly or less than the wild type. One block for each binder: values may come before it.
Columns and labels:
Myc-tagged CD154 [1] = biological target: T1, Myc-tagged CD154 (UniProt P29965 116-261, limits assumed); assay: competition ELISA on Myc-tagged CD154 captured by 9E10: unlabeled ch342 Fab' varied against 1 nM biotin 342 Fab' or 0.3 nM biotin 5c8 Fab' (Example 14)
T1 construct: Captured on the ELISA plate by anti-Myc antibody 9E10; The order of tag and CD154 is not known; also called CD40L; not shown: Myc tag
T1 sequence (looked up): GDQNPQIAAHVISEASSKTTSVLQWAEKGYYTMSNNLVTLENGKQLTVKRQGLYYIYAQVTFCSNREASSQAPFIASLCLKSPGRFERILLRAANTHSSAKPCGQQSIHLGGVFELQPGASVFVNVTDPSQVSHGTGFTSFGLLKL

[2] = biological target: T2, CD154 expressed on D1.1 Jurkat cells (UniProt P29965 1-261, limits assumed); assay: flow cytometry: Alexa Fluor 488-labeled 342 Fab' at 300 ng/ml on CD154-expressing D1.1 Jurkat cells (Example 9)
T2 sequence (looked up): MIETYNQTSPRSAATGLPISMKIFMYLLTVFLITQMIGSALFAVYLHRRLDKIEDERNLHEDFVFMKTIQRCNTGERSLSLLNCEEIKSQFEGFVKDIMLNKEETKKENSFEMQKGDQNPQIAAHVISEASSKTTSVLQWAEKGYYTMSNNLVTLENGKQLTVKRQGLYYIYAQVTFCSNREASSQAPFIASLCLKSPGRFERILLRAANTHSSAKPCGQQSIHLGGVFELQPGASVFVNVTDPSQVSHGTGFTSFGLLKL

[3] = biological target: soluble human CD154 protein (extracellular domain) (human) (UniProt P29965); assay: Biacore (SPR), sequential injections: 342 FL captured, ECD, 342 Fab', then 5c8 Fab'; concentrations not given (Example 10)
Myc-tagged CD154 [4] = biological target: T1, Myc-tagged CD154; assay: ELISA: Myc-tagged CD154 captured on anti-Myc antibody 9E10, biotin 342 Fab' titrated, streptavidin-HRP detection (Example 14)
Method: In this assay, anti-Myc antibody 9E10 was coated onto an ELISA plate. Myc-tagged CD154 was captured by this antibody. […] The plate was washed and the amount of biotinylated 5c8 Fab bound was determined using streptavidin HRP as a secondary. The signal was graphed and fit using a either a one site binding hyperbola or a two site binding hyperbola curve fit in Prism software (Graph Pad).
A titration of biotin 5c8 Fab′ on CD154 to determine the appropriate concentration for cross-blocking analysis was also performed (FIG. 29B).

binding (Myc-tagged CD154 [1]): binds
B1: chimeric 342 Fab′ (unlabeled 342 Fab′ of FIG. 29C) (Fab, V domains shown)
VH: QVQLKESGPGLVQPSETLSLTCTVSGFSSTNYHVHWVRQPPGKSLEWMGVIWGDGDTSYNSVLKSRLSITRDTSRSQVFLKMSSLQTEDTATYYCARQLTHYYVLAAWGQGASVTVS
VL: DIQMTQSPASLSASLGETVTVECRASEDLYYNLAWYQRKPGNSPQLLIYDTYRLADGVPSRFSGSGSGTQYSLKINTLPSGDVASYFCQQYYKFPFTFGSGTKLELK
notes: also called ch342 Fab

binding [2]: binds | binding [3]: binds | binding (Myc-tagged CD154 [4]): binds
B2: 342 Fab′ (Fab, V domains shown)
VH: EVQLVESGGGLVQPGGSLRLSCAVSGFSSTNYHVHWVRQAPGKGLEWMGVIWGDGDTSYNSVLKSRFTISRDTSKNTVYLQMNSLRAEDTAVYYCARQLTHYYVLAAWGQGTLVTVSS
VL: DIQMTQSPSSLSASVGDRVTITCRASEDLYYNLAWYQRKPGKAPKLLIYDTYRLADGVPSRFSGSGSGTDYTLTISSLQPEDFASYYCQQYYKFPFTFGQGTKVEIKR

Source: patent US20130045219A1 (UCB, published 2013)
